No constants are given. Whether binding was seen depends on the method and setting. Binding seen in cells or lysates may run through a third protein. Some binding calls cover weakened binding; strength is not graded here.
T1: TRAF6 (endogenous, MEFs) (mouse (endogenous in MEFs)) (UniProt P70196)
T1 sequence: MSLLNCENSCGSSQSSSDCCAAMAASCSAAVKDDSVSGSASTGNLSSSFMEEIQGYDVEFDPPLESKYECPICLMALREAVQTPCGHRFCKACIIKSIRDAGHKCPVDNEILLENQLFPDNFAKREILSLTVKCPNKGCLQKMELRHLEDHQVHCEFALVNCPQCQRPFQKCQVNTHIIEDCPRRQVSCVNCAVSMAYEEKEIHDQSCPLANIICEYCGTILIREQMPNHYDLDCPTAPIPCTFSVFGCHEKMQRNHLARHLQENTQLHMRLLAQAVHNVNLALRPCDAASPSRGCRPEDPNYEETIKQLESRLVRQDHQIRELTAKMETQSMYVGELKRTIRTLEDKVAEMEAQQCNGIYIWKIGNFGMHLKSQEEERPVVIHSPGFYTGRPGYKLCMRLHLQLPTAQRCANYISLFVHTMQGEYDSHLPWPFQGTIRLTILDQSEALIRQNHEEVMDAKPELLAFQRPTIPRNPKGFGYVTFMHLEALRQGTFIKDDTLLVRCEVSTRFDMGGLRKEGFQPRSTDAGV

T2: TRAF6 wild type (expressed in HEK293T cells) (UniProt P70196)
T2 sequence: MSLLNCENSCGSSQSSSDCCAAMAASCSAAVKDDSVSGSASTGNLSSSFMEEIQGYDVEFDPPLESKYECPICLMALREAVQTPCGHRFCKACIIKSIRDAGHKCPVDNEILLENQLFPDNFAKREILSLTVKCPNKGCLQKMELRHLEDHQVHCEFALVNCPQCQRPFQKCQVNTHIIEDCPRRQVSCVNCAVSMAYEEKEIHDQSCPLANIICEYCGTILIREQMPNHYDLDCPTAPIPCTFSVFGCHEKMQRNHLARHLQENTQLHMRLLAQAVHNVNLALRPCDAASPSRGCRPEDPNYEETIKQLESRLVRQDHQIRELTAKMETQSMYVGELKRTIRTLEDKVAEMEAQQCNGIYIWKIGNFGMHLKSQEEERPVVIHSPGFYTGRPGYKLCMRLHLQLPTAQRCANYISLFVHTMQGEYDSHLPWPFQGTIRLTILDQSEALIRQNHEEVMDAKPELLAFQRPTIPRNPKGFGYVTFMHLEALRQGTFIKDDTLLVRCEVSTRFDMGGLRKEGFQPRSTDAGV

T3: TRAF2 (UniProt P39429)
T3 sequence: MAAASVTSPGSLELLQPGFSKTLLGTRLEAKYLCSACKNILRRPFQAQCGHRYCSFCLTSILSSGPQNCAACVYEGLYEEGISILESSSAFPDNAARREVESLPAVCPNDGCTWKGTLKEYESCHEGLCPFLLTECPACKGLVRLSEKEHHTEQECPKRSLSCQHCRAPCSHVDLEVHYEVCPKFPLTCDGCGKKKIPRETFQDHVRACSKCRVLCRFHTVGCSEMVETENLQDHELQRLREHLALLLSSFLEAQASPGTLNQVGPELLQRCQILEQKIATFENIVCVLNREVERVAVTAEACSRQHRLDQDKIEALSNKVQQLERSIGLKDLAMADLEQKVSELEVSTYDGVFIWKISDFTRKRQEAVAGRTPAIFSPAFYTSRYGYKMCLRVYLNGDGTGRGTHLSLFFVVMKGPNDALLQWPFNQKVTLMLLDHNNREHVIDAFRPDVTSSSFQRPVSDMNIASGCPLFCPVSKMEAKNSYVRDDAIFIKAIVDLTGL


Tests used:
[1] = target: T1, TRAF6 (endogenous, MEFs) (mouse (endogenous in MEFs)); experiment: co-IP; endogenous proteins; CRTC2 recovered from immunoprecipitates of TRAF6 from MEFs, immunoblot; basal and after IL-1β (10 μg l^−1); TRAF6^−/− and CRTC2^−/− MEFs as controls
[2] = target: T2, TRAF6 wild type (expressed in HEK293T cells); experiment: co-IP; Supplementary Figure S5b, d, e; legend not shown, cells and direction not told; immunoprecipitation is the only binding method in the methods
[3] = target: T2, TRAF6 wild type (expressed in HEK293T cells); experiment: co-IP; HEK293T cells expressing CRTC2 (wild type or E2A) and TRAF6; immunoblots (Figure 2h)
TRAF2 = target: T3, TRAF2; experiment: co-IP; Supplementary Figure S6a; legend not shown, cells and direction not told; immunoprecipitation is the only binding method in the methods

Binder	binding [1]	binding [2]	binding [3]	binding (TRAF2)
CRTC2 (endogenous, MEFs) (protein, UniProt Q3U182 1-692) MATSGANGPGSATASASNPRKFSEKIALQKQRQAEETAAFEEVMMDIGSTRLQAQKLRLAYTRSSHYGGSLPNVNQIGCGLAEFQSPLHSPLDSSRSTRHHGLVERVQRDARRMVSPLRRYPRHIDSSPYSPAYLSPPPESGWRRMMPWGNLPAEKGQLFRLPSALNRTSSDSALHTSVMNPNPQDTYPGPTPPSVLPSRRGGGFLDGEMDAKVPAIEENVVDDKHLLKPWDAKKLSSSSSRPRSCEVPGINIFPSPDQPANVPVLPPAMNTGGSLPDLTNLHFPPPLPTPLDPEETVYPSLSGGNSTTNLTHTMTHLGISGGLGLGPSYDVPGLHSPLSHPSLQSSLSNPNLQASLSSPQPQLQGSHSHPSLPASSLAHHALPTTSLGHPSLSAPALSSSSSSSSTSSPVLSAPPYPASTPGASPRHRRVPLSPLSLPAGPADARRSQQQLPKQFSPTMSPTLSSITQGVPLDTSKLPTDQRLPPYPYSPPSLVIPTHPPTPKSLQQLPSQACLVQPSGGQPPGRQPHYGALYPPGSSGHGQQPYHRPINDFSLGNLEQFNMESPSTSLVLDPPAFSEGPGFLGSEGSMSGPQDPHVLNHQNLTHCSRHGSGPNIILTGDSSPGFSKEIAAALAGVPGFEVSASGLELGLGLEDELRMEPLGLEGLTMLSDPCALLPDPAVEDSFRSDRLQ	binds			
CRTC2 wild type (expressed in HEK293T cells) (protein, UniProt Q3U182 1-692) MATSGANGPGSATASASNPRKFSEKIALQKQRQAEETAAFEEVMMDIGSTRLQAQKLRLAYTRSSHYGGSLPNVNQIGCGLAEFQSPLHSPLDSSRSTRHHGLVERVQRDARRMVSPLRRYPRHIDSSPYSPAYLSPPPESGWRRMMPWGNLPAEKGQLFRLPSALNRTSSDSALHTSVMNPNPQDTYPGPTPPSVLPSRRGGGFLDGEMDAKVPAIEENVVDDKHLLKPWDAKKLSSSSSRPRSCEVPGINIFPSPDQPANVPVLPPAMNTGGSLPDLTNLHFPPPLPTPLDPEETVYPSLSGGNSTTNLTHTMTHLGISGGLGLGPSYDVPGLHSPLSHPSLQSSLSNPNLQASLSSPQPQLQGSHSHPSLPASSLAHHALPTTSLGHPSLSAPALSSSSSSSSTSSPVLSAPPYPASTPGASPRHRRVPLSPLSLPAGPADARRSQQQLPKQFSPTMSPTLSSITQGVPLDTSKLPTDQRLPPYPYSPPSLVIPTHPPTPKSLQQLPSQACLVQPSGGQPPGRQPHYGALYPPGSSGHGQQPYHRPINDFSLGNLEQFNMESPSTSLVLDPPAFSEGPGFLGSEGSMSGPQDPHVLNHQNLTHCSRHGSGPNIILTGDSSPGFSKEIAAALAGVPGFEVSASGLELGLGLEDELRMEPLGLEGLTMLSDPCALLPDPAVEDSFRSDRLQ		binds	binds	binds
CRTC1 wild type (protein, UniProt Q68ED7 1-630) MATSNNPRKFSEKIALHNQKQAEETAAFEEVMKDLSLTRAARLQLQKSQYLQLGPSRGQYYGGSLPNVNQIGSSSVDLAFQTPFQSSGLDTSRTTRHHGLVDRVYRERGRLGSPHRRPLSVDKHGRQADSCPYGTVYLSPPADTSWRRTNSDSALHQSTMTPSQAESFTGGSQDAHQKRVLLLTVPGMEDTGAETDKTLSKQSWDSKKAGSRPKSCEVPGINIFPSADQENTTALIPATHNTGGSLPDLTNIHFPSPLPTPLDPEEPPFPALTSSSSTGSLAHLGVGGAGQGMNTPSSSPQHRPAVVSPLSLSTEARRQQAQQVSPTLSPLSPITQAVAMDALSLEQQLPYAFFTQTGSQQPPPQPQPPPPPPPVSQQQPPPPQVSVGLPQGGPLLPSASLTRGPQLPPLSVTVPSTLPQSPTENPGQSPMGIDATSAPALQYRTSAGSPATQSPTSPVSNQGFSPGSSPQHTSTLGSVFGDAYYEQQMTARQANALSRQLEQFNMMENAISSSSLYNPGSTLNYSQAAMMGLSGSHGGLQDPQQLGYTGHGGIPNIILTVTGESPPSLSKELSSTLAGVSDVSFDSDHQFPLDELKIDPLTLDGLHMLNDPDMVLADPATEDTFRMDRL		binds		
